Reference: paper PMC4831018
No constants are given. Whether binding was seen depends on the method and setting. In cells and extracts the contact can be indirect. These calls come from enrichment with a bait or labelling near it, and not all partners need be listed.

Chains of the proteins cited; added tags and fusions are not shown. Lines headed by an entry give the natural chain unless they say otherwise; changes in a name come on top.
UniProt B9PY91: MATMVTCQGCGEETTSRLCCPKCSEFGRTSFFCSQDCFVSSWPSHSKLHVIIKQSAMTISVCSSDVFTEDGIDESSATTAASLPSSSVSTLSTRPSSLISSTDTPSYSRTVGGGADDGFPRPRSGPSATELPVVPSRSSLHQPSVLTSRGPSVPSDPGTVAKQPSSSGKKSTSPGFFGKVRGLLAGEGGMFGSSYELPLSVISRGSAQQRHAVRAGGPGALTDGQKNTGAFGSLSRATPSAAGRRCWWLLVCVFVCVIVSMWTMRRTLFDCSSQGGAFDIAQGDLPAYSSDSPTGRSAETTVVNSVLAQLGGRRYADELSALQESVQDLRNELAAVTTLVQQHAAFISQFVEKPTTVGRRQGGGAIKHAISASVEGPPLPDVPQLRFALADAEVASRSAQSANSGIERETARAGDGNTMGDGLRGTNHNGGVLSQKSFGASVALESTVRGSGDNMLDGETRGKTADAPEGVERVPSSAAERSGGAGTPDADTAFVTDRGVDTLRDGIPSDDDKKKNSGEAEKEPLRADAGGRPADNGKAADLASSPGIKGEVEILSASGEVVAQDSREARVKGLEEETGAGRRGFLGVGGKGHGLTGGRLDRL
UniProt A0A125YRI3: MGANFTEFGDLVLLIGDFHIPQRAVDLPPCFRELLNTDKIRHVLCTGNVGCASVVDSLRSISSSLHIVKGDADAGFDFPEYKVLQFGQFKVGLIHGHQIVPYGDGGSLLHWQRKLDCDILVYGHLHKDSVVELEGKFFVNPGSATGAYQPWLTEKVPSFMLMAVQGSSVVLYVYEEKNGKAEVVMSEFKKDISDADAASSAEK

Assays:
[1] = biological target: TgHP12-cMyc (Toxoplasma gondii) (UniProt B9PY91); test: affinity purification with mass spectrometry; immunoprecipitate of TgHP12-cMyc (knock-in in iKoTgVps35 parasites) analysed by mass spectrometry
[2] = biological target: T. gondii core retromer complex TgVps35–TgVps26–TgVps29 (Toxoplasma gondii); test: affinity purification with mass spectrometry; eluates of the anti-HA (TgVps35-HA, TgVps26-HA) and anti-cMyc (TgVps29-cMyc) immunoprecipitations analysed by nanoLC-MS/MS; hits common to at least two co-immunoprecipitations, absent in the control, at least two unique peptides

Molecule | binding [1] | binding [2]
TgVps29 (from UniProt A0A125YRI3) | binds | –
Rab11B (protein, UniProt Q7Z158 1-226) MAGGSEDYDHLYKVILVGDATVGKTHLLSRYIRGTLPKSPKATIGVEFATRTVPLAVGGTVKAQIWDTAGQERYRSITSAHYRRAVGALLVYDVTRKSTFLNASKWLEELRQNSEPDIVIMMVGNKLDLVEKDPTARDVPYELAAKFAQANGLYFSEASAVTAFNVKHIFEHLLQEIYNHRTQGEEFSGRANGADAYRDAQALGGVRLAANANMYGRNPQNLSCCG | – | binds
